Test results reported in PMC10954555.
Like-named read-outs stand apart in the source and are kept apart here. No constants are given. Whether binding was seen depends on the method and setting. In cells and extracts the contact can be indirect. A yes stands for co-enrichment or nearness to the bait. Other partners may have been found. Blank lines part the entries; values can stand above or below the molecule they belong to.

Chains of the proteins cited; added tags and fusions are not shown.
UniProt Q9C086: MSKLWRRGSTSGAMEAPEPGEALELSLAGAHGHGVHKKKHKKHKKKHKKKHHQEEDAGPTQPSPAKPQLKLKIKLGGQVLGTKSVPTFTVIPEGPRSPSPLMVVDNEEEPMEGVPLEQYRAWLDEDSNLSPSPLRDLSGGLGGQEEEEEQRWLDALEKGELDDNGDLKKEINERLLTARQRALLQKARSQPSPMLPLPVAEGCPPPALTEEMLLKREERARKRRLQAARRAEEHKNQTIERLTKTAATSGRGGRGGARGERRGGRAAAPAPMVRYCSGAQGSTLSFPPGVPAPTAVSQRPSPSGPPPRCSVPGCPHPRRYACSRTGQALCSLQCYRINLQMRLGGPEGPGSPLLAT
UniProt Q96EZ8: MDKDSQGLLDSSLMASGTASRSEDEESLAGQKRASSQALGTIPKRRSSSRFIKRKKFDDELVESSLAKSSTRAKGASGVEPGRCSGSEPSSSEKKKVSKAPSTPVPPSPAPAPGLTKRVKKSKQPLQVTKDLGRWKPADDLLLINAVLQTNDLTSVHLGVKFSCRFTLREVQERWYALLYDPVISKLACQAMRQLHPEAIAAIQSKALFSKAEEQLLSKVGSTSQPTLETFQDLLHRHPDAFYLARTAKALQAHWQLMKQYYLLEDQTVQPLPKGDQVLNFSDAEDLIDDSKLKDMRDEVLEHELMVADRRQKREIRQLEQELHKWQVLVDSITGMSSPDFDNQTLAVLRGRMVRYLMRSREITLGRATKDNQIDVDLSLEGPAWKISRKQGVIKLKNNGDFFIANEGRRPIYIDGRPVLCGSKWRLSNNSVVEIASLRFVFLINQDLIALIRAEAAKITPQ
UniProt P25490: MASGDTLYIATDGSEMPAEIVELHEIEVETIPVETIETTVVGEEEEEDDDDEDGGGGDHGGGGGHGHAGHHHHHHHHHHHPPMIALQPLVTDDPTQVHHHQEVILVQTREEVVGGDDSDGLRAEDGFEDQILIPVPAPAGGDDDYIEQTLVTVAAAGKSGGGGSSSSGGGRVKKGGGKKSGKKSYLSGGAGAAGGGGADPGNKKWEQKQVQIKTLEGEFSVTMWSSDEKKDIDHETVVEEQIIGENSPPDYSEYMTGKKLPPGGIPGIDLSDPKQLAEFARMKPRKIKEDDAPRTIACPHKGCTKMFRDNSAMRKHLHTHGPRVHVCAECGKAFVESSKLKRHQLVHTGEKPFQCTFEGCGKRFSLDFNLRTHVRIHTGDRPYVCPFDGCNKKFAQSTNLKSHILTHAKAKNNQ
UniProt Q53TQ3: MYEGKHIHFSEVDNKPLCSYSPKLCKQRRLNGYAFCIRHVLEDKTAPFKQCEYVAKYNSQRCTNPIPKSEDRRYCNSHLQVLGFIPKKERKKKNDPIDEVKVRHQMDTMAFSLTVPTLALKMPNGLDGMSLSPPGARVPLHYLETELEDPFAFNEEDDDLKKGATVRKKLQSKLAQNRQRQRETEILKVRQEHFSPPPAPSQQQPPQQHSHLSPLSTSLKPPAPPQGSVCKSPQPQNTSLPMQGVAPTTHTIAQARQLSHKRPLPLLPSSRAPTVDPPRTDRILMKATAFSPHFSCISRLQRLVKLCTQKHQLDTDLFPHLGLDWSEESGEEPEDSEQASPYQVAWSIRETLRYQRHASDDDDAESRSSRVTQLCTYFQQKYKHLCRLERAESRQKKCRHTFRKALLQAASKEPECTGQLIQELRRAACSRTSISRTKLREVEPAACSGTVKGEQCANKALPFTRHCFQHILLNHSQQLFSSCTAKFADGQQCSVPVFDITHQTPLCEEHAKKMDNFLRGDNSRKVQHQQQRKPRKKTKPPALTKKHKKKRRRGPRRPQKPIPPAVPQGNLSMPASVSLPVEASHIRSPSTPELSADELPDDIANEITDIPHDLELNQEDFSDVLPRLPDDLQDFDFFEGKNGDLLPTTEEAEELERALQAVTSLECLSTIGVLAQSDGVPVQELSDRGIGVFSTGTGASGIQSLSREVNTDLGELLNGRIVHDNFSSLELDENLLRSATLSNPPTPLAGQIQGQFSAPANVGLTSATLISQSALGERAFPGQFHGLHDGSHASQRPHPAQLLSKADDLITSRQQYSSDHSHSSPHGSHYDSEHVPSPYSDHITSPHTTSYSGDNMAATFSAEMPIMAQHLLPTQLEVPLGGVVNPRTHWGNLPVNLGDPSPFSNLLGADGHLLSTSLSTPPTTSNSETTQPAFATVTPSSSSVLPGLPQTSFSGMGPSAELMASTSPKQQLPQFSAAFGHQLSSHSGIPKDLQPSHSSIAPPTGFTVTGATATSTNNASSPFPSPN

What was measured:
[1] = target: INO80B-V5 (endogenously V5-tagged INO80B) (human (endogenous in MCF-7)) (UniProt Q9C086); test: affinity purification with mass spectrometry; anti-V5 immunoprecipitation from nuclear extracts of MCF-7 INO80B-V5 knock-in clones followed by label-free MS (n = 3); stoichiometry relative to INO80B
[2] = target: INO80B-V5 (endogenously V5-tagged INO80B) (human (endogenous in MCF-7)) (UniProt Q9C086); test: as above; remark: listed apart in the source

binding [1]: binds
Molecule: MCRS1 (from UniProt Q96EZ8 1-462)

binding [1]: binds
Molecule: YY1 (from UniProt P25490 1-414)

binding [1]: binds
Molecule: INO80D (from UniProt Q53TQ3 1-1027)

binding [2]: binds
B1: transforming growth factor beta regulator 1 (TBRG1) (protein, UniProt Q3YBR2 1-411)
chain: MSLLDGLASSPRAPLQSSKARMKKLPKKSQNEKYRLKYLRLRKAAKATVFENAAICDEIARLEEKFLKAKEERRYLLKKLLQLQALTEGEVQAAAPSHSSSLPLTYGVASSVGTIQGAGPISGPSTGAEEPFGKKTKKEKKEKGKENNKLEVLKKTCKKKKMAGGARKLVQPIALDPSGRPVFPIGLGGLTVYSLGEIITDRPGFHDESAIYPVGYCSTRIYASMKCPDQKCLYTCQIKDGGVQPQFEIVPEDDPQNAIVSSSADACHAELLRTISTTMGKLMPNLLPAGADFFGFSHPAIHNLIQSCPGARKCINYQWVKFDVCKPGDGQLPEGLPENDAAMSFEAFQRQIFDEDQNDPLLPGSLDLPELQPAAFVSSYQPMYLTHEPLVDTHLQHLKSPSQGSPIQSSD
